According to publication PMC10445734:
No constants are given. Whether binding was seen depends on the method and setting. Binding seen in cells or lysates may run through a third protein. These calls come from enrichment with a bait or labelling near it, and not all partners need be listed.

Biological target: N-terminally HA-tagged Fra (Frazzled), pan-neurally overexpressed (Drosophila)
Assay: affinity purification with mass spectrometry; lysates of Drosophila embryos pan-neurally (elav-Gal4) overexpressing N-terminally HA-tagged Fra; anti-HA immunoprecipitation overnight at 4°C, protein A and G agarose beads, TBSV with 1% NP40; eluted with glycine pH 2.0; label-free LC-MS/MS; control embryos with elav-Gal4 alone

B1: Netrin-B (ligand, UniProt Q24568 23-793)
chain: SSAAGISSNDPCYFEGKPRKCLPSFVNAAYGNPVQASSVCGAQQPERYCELLRDGNAGECRSCEQQRYGPAALTDLNNPSNVTCWRSGAVNVPHDPDSAPPDNVTLTLSLGKKYELTYISLSFCPRSPRPDSLAIFKSSDFGQTWQPFQFYSSQCQKFYGRPDRAKISKFNEQEARCINSQHDTGGAAQRFAFNTLEGRPSANDLDSSLVLQDWVTATDIRVVFHRLELPPQLLKVKNANAFSDEMGGSREEDEDDDADLELDGEQDEYDYNLQDNDSADAGYDEYEEPKKHLELDDDHLHLDYASDGESVVKRQGKHKGSAYEKHYQSKLAATTPPQQPPKVTPPGKVTPPSTAAPSAAASAVTLPISQHYAVSDFAVGGRCKCNGHASECVATVSSGSGTALSDQDDGQDEDTPSAPSLANHFGRSTQMSAKLTMTCACKHNTAGPECERCKPFYFDRPWGRATDNDANECKMCQCNGHARRCRFNLELYKLSGRVSGGVCYNCQHDTTGRYCHYCREGYYRDATKPPNHRKVCKRCDCHPVGSTGKTCNHLSGQCPCKEGVTGLTCNRCARGYQQTRSHVAPCIKVPTNANMIQAESAGGGGGGGTGDYKDGGGSQVEEMKKYCGKCKASPKKLNLNKFCMEDYAILAKVIGHDRASQDISTEKFSIERQNEIYKYEINIQTIFKRNPMSGTTSSLLGRGNMMLLVPRKSIECQCPKIKLNKSYLILGRDSEAAPGYLAIGPSSVVLEWKDEWSLRMKRFQRRARKCS
  binding: binds
